Experimental data: PubChem BioAssay AID652243 (Drosophila RNAi Screening Center, 2013)

Aim: 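Knock-downs that decrease or increase androgen receptor reporter signal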 (primary screen)
System: Drosophila S2R+ cells
Reagents: long dsRNA against Drosophila genes
Time to read-out: 72 h (48 h, then 24 h hormone)
Treatment: synthetic androgen R1881 at 10 nM for 24 h
Measured: 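Firefly light from an androgen-responsive reporter and Renilla control light per well, raw and unnormalised, for each of two replicates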
Scale: firefly reporter light: higher = more light from androgen-responsive reporter; Renilla control light: higher = more constitutive control signal (cell number, transfection)
Rule for the call: 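Hit when the log firefly-to-Renilla ratio dropped or increased by a fixed fold versus the mean of GFP or LacZ controls across duplicate plates; lowering cut given as 1.5 and as 3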
Meaning of the calls: active = hit: reporter lowered or raised; inactive = no hit
In all, the deposit lists about 24,000 reagents; this is a random part of those with a known target gene and a result. In the full data, 246 (1%) are marked active. 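Plates not normalised; calls are printed but the firefly/Renilla ratio behind them is not deposited; fold cut for lowering reported inconsistently.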 The raw values are shown without normalisation. Names joined by + are all predicted targets of the reagent. No sequences are given here. Not given: the amount of reagent.

gene	DRSC id	firefly reporter light, replicate 1	firefly reporter light, replicate 2	Renilla control light, replicate 1	Renilla control light, replicate 2	Call
CG4927	DRSC06903	53765	73322	9.62e5	9.62e5	inactive
CG4927	DRSC28614	3.24e5	3.26e5	1.78e6	1.34e6	inactive
Mip	DRSC23429	4.63e5	4.42e5	5.16e5	5.09e5	inactive
Psa	DRSC08152	1.55e6	1.91e6	1.28e6	1.47e6	inactive
CG40485	DRSC38788	8.18e5	8.11e5	1.41e6	1.63e6	inactive
CG3902	DRSC10387	1.84e5	1.36e5	1.69e6	1.79e6	inactive
CG3902	DRSC24267	7.76e5	6.79e5	9.04e5	1.14e6	inactive
bark	DRSC00635	1.18e5	1.04e5	8.77e5	1.05e6	inactive
bark	DRSC27011	4.40e5	3.77e5	8.87e5	5.68e5	inactive
m	DRSC20181	2.67e5	3.34e5	2.80e6	2.61e6	inactive
m	DRSC29636	1.55e5	2.63e5	7.82e5	7.82e5	inactive
Ada	DRSC14463	2.10e5	2.18e5	3.48e6	3.25e6	inactive
CG34188	DRSC38869	9.65e5	9.71e5	1.86e6	1.86e6	inactive
sens-2	DRSC02613	2.39e5	3.25e5	1.98e6	1.53e6	inactive
sens-2	DRSC25026	7.58e5	5.49e5	8.31e5	6.70e5	inactive
CG4239	DRSC19885	1.91e5	1.10e5	6.98e5	6.56e5	inactive
CG14687	DRSC14910	4.37e5	4.61e5	2.20e6	1.66e6	inactive
CG14687	DRSC29639	3.32e5	3.29e5	5.86e5	5.86e5	inactive
Gr21a	DRSC00366	1.62e5	97782	1.08e6	8.49e5	inactive
Gr21a	DRSC28583	9.69e5	9.69e5	1.88e6	1.59e6	inactive
Bsg	DRSC01010	64529	46256	2.04e5	2.14e5	inactive
Bsg	DRSC01011	3.18e5	2.39e5	3.70e5	2.10e5	inactive
tj	DRSC02011	65536	83751	9.78e5	1.01e6	inactive
tj	DRSC28417	2.10e5	4.57e5	4.11e5	8.29e5	inactive
Dlish	DRSC06016	99629	1.15e5	2.45e6	2.45e6	inactive
Dlish	DRSC36868					inactive

5 entries from above in another layout:
CG34188 [DRSC38869] — firefly reporter light, replicate 1 = 9.65e5; firefly reporter light, replicate 2 = 9.71e5; Renilla control light, replicate 1 = 1.86e6; Renilla control light, replicate 2 = 1.86e6; Call = inactive
sens-2 [DRSC02613] — firefly reporter light, replicate 1 = 2.39e5; firefly reporter light, replicate 2 = 3.25e5; Renilla control light, replicate 1 = 1.98e6; Renilla control light, replicate 2 = 1.53e6; Call = inactive
sens-2 [DRSC25026] — firefly reporter light, replicate 1 = 7.58e5; firefly reporter light, replicate 2 = 5.49e5; Renilla control light, replicate 1 = 8.31e5; Renilla control light, replicate 2 = 6.70e5; Call = inactive
CG4239 [DRSC19885] — firefly reporter light, replicate 1 = 1.91e5; firefly reporter light, replicate 2 = 1.10e5; Renilla control light, replicate 1 = 6.98e5; Renilla control light, replicate 2 = 6.56e5; Call = inactive
CG14687 [DRSC14910] — firefly reporter light, replicate 1 = 4.37e5; firefly reporter light, replicate 2 = 4.61e5; Renilla control light, replicate 1 = 2.20e6; Renilla control light, replicate 2 = 1.66e6; Call = inactive

The list goes on:
gene	DRSC id	firefly reporter light, replicate 1	firefly reporter light, replicate 2	Renilla control light, replicate 1	Renilla control light, replicate 2	Call
CG14535	DRSC02393	1.56e5	1.59e5	1.75e6	1.73e6	inactive
cathD	DRSC07588	1.97e5	2.03e5	1.86e6	1.37e6	inactive
Rep	DRSC07526	1.18e6	1.07e6	1.32e6	1.38e6	inactive
CG15753 (retired record)	DRSC18982	7.22e5	6.55e5	2.06e6	1.85e6	inactive
CG15753 (retired record)	DRSC19503	1.11e5	85910	5.72e5	6.72e5	inactive
CG15753 (retired record)	DRSC19716	3.62e5	3.11e5	2.71e6	2.36e6	inactive
CG15753 (retired record)	DRSC19717	3.20e5	3.51e5	1.68e6	2.09e6	inactive
CG15753 (retired record)	DRSC22985	7.31e5	1.12e6	1.28e6	1.68e6	inactive
CG34244	DRSC38842	1.03e6	9.38e5	2.54e6	2.00e6	inactive
KP78b + KP78a	DRSC23338	5.26e5	6.92e5	1.33e6	1.41e6	inactive
KP78b + KP78a	DRSC23341	5.83e5	6.51e5	1.24e6	1.77e6	inactive
KP78b + KP78a	DRSC29265	5.64e5	5.02e5	1.13e6	1.03e6	inactive
KP78b + KP78a	DRSC36773					inactive
CG34126	DRSC02726	1.93e5	1.68e5	2.29e6	1.32e6	inactive
CG34126	DRSC22079	7.79e5	9.13e5	3.90e5	3.14e5	inactive
sn	DRSC18834	1.67e5	2.33e5	2.12e6	2.24e6	inactive
sn	DRSC28327	3.80e5	6.23e5	7.91e5	9.91e5	inactive
GstE13	DRSC06083	1.09e6	8.06e5	1.38e6	8.88e5	inactive
CG11231 (retired record)	DRSC17207	2.70e5	2.52e5	3.07e6	2.14e6	inactive
CG11563	DRSC14327	3.20e5	2.86e5	2.54e6	2.92e6	inactive
moon	DRSC19497	3.14e5	3.32e5	2.73e6	2.71e6	inactive
betaNACtes3	DRSC20183	7.08e5	5.18e5	3.67e6	3.01e6	inactive
Rab1	DRSC16808	3.36e5	4.68e5	3.15e6	3.56e6	inactive
Rab1	DRSC29851	8.25e5	6.33e5	1.18e6	1.37e6	inactive
Tpi	DRSC16888	36755	39951	3.66e5	4.07e5	inactive
miple1	DRSC08722	1.15e5	1.62e5	2.02e6	2.22e6	inactive
Tm2	DRSC16887	1.31e5	1.07e5	1.77e6	1.97e6	inactive
Tm2	DRSC26884	3.11e5	3.11e5	6.58e5	8.25e5	inactive
spo	DRSC11127	1.32e5	1.72e5	1.61e6	2.17e6	inactive
ssx	DRSC18492	27982	32094	2.07e5	3.22e5	inactive
ssx	DRSC23454	1.22e6	1.46e6	7.96e5	9.58e5	inactive
ssx	DRSC38980	8.31e5	6.59e5	1.95e6	1.90e6	inactive
CycB	DRSC04605	3.03e5	1.57e5	8.87e5	6.68e5	active
CycB	DRSC36993					inactive
ND-B14.7	DRSC04544	1.48e5	2.18e5	1.47e6	1.39e6	inactive
CG14823	DRSC10194	1.10e6	8.21e5	1.74e6	1.39e6	inactive
CG43326 + CG43325	DRSC04157	2.90e5	2.64e5	2.22e6	1.54e6	inactive
CG7290	DRSC10800	3.84e5	2.45e5	2.98e6	2.63e6	inactive
CG7290	DRSC26651	2.51e5	2.07e5	8.30e5	7.68e5	inactive
Glys	DRSC16130	46198	65537	3.65e5	4.08e5	inactive
wdp	DRSC04367	9.09e5	5.69e5	1.37e6	8.93e5	inactive
wdp	DRSC28581	5.76e5	4.66e5	1.49e6	1.33e6	inactive
CG32532	DRSC19556	2.89e5	3.27e5	1.06e6	6.04e5	inactive
CG32532	DRSC19557	2.16e5	1.40e5	5.94e5	4.45e5	inactive
CG32532	DRSC21370	6.22e5	5.93e5	2.12e6	1.82e6	inactive
CG11583	DRSC08202	6.22e5	6.11e5	1.70e6	1.80e6	inactive
CG11583	DRSC26394	3.03e5	2.77e5	6.51e5	6.88e5	inactive
Samtor	DRSC04390	6.85e5	3.81e5	8.09e5	6.30e5	inactive
Samtor	DRSC24231	8.19e5	8.62e5	1.13e6	1.40e6	inactive
